Experimental data as given in the supplement of paper PMC11732987, “Enantioselective OTUD7B fragment discovery through chemoproteomics screening and high-throughput optimisation” (Communications Chemistry, 2025).
Some of the results follow. The data scatter; read single values as rough.

Protein sequences, listed by entry. Tags and fused reporters are not part of them. Lines headed by an entry give the natural chain unless they say otherwise; changes in a name come on top.
UniProt Q9NZZ3: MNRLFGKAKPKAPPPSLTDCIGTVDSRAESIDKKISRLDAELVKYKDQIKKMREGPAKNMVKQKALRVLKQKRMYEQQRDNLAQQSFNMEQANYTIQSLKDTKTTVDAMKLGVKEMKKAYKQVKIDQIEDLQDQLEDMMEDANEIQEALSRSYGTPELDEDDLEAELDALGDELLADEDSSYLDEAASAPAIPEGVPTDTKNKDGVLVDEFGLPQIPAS
UniProt O96017, whole entry, looked up: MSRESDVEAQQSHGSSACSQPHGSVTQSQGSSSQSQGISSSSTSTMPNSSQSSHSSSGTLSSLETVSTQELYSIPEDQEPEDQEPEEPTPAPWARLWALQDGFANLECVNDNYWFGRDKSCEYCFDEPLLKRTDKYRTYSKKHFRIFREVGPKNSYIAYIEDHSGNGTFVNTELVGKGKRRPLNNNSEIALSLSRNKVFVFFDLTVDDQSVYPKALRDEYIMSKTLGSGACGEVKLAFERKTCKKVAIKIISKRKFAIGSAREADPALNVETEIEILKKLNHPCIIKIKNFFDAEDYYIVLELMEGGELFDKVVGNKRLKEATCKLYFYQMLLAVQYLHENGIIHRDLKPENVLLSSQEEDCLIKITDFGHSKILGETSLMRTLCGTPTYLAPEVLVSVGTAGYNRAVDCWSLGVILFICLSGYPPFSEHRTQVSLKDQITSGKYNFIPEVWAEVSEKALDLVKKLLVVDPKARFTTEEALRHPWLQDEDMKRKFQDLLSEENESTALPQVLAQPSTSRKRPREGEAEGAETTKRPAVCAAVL
UniProt P53675: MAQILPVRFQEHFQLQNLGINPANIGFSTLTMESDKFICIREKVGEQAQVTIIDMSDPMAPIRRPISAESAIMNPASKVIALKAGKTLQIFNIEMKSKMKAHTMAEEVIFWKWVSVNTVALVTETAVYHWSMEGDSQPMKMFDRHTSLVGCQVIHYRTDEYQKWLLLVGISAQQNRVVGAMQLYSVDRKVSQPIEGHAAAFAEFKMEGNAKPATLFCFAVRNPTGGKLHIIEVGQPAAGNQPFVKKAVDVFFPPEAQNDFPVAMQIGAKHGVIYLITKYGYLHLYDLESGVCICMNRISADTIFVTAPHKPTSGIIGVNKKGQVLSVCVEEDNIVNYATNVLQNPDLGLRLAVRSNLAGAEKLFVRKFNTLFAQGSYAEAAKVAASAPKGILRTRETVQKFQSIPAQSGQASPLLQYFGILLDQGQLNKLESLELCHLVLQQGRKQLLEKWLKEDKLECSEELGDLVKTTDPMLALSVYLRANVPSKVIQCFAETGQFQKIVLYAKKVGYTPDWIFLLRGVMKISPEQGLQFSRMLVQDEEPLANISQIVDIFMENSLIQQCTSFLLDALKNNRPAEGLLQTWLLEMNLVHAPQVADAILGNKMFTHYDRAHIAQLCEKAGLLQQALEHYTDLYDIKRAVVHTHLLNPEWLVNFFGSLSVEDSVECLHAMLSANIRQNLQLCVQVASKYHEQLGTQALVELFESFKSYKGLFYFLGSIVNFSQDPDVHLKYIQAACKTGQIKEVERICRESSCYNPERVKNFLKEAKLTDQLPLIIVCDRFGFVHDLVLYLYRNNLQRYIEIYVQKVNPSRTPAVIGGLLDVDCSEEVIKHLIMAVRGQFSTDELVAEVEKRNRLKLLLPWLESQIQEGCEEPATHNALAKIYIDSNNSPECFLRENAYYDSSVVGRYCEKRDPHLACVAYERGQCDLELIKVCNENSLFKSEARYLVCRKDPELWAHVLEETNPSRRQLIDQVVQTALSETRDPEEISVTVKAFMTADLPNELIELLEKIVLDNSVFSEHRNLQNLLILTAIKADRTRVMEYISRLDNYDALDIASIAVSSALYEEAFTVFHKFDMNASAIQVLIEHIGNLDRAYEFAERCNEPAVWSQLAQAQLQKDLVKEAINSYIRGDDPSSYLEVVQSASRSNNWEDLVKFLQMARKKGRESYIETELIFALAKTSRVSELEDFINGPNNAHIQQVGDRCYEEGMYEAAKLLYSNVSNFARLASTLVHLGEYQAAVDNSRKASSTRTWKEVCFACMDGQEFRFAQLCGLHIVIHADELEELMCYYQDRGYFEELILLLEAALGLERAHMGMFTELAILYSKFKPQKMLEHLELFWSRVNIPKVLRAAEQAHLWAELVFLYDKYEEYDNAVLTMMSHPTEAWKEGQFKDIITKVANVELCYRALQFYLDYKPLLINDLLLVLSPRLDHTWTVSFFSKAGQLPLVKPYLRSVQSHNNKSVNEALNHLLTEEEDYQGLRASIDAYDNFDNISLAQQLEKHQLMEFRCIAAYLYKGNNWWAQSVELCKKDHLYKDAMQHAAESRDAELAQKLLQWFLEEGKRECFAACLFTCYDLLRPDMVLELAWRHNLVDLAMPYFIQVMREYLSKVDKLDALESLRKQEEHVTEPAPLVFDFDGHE
UniProt O75131: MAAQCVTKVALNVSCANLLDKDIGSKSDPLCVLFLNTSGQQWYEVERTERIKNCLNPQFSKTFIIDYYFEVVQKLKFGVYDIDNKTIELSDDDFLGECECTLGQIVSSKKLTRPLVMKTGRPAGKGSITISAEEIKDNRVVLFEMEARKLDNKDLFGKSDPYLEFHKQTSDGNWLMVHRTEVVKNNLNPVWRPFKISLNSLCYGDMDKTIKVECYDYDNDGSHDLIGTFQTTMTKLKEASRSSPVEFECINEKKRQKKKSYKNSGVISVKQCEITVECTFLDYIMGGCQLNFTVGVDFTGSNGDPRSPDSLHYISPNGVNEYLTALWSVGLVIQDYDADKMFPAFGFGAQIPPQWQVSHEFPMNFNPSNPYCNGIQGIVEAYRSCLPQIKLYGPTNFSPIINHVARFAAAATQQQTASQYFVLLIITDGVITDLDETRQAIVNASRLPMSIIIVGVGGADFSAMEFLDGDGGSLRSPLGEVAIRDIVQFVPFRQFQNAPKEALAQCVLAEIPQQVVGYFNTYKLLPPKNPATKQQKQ
UniProt O95639: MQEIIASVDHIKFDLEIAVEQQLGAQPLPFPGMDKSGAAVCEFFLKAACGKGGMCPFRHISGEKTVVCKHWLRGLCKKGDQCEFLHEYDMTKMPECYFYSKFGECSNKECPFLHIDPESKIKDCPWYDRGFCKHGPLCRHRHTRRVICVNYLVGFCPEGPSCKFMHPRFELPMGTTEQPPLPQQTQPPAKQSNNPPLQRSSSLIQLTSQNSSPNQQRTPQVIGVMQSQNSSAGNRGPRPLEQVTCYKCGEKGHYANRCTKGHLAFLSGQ
UniProt Q9UKF6: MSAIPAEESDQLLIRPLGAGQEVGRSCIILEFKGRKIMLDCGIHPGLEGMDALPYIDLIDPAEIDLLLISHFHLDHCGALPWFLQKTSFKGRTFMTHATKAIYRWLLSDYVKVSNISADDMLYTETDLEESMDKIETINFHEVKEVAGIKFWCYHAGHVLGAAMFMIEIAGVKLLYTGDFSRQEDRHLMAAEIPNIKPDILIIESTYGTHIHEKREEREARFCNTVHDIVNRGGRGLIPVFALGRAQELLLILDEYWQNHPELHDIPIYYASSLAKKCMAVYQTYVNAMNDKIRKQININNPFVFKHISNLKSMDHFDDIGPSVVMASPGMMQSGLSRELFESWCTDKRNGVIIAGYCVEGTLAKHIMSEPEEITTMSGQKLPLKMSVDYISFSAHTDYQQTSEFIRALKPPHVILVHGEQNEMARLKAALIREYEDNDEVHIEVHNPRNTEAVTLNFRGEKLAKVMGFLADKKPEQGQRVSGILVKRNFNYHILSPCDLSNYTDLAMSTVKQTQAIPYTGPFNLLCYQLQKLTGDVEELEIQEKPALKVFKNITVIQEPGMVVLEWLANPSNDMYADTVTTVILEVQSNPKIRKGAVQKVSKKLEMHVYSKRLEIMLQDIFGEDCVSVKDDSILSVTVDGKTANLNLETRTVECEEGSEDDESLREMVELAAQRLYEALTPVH
UniProt Q8IWX8: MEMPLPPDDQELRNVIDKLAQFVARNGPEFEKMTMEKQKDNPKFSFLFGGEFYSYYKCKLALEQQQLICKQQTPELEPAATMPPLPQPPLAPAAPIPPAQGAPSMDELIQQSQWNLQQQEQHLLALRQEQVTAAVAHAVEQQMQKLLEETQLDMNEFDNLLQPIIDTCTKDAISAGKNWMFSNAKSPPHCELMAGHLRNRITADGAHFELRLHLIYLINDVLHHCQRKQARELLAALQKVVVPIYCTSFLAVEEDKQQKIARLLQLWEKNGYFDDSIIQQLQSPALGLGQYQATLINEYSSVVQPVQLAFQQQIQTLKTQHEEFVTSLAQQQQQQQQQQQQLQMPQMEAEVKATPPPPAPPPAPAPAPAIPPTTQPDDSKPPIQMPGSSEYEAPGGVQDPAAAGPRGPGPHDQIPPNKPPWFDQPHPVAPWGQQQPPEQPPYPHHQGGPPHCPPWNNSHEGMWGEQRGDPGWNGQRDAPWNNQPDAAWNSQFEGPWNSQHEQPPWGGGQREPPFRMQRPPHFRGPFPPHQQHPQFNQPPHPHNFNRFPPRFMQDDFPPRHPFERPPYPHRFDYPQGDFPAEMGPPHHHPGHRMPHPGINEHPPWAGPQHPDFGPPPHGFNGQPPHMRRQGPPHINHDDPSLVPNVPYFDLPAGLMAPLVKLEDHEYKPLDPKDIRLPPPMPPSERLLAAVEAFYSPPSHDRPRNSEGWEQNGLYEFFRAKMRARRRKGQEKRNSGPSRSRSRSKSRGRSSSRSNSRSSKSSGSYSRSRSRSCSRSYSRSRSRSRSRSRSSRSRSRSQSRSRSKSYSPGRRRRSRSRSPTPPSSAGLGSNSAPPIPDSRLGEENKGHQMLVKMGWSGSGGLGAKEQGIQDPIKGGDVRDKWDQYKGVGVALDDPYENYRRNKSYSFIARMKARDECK
UniProt Q8WTW3: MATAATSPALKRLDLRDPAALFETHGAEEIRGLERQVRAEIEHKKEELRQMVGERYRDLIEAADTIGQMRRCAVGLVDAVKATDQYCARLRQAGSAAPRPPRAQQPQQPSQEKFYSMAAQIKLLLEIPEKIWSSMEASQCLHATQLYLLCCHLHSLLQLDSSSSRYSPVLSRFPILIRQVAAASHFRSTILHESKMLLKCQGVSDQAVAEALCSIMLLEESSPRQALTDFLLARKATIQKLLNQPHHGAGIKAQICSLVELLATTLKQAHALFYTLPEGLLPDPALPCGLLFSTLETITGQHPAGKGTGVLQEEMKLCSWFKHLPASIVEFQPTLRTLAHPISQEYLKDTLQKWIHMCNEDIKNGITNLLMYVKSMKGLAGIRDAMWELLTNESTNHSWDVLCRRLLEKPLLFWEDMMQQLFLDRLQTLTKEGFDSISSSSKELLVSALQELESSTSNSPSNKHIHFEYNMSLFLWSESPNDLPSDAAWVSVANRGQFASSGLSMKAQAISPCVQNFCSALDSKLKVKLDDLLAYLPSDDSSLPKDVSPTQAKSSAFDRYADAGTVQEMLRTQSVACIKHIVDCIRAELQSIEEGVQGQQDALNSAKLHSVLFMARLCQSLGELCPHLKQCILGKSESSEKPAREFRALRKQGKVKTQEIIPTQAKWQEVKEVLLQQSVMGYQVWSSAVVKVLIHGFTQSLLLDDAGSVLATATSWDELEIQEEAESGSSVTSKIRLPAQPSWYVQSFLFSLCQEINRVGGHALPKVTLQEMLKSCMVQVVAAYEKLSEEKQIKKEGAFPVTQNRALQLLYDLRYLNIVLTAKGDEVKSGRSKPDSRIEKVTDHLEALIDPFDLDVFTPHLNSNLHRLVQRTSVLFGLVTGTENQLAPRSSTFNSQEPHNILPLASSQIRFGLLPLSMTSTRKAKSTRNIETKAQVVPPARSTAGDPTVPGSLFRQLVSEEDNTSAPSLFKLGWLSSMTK
UniProt Q6PJW8: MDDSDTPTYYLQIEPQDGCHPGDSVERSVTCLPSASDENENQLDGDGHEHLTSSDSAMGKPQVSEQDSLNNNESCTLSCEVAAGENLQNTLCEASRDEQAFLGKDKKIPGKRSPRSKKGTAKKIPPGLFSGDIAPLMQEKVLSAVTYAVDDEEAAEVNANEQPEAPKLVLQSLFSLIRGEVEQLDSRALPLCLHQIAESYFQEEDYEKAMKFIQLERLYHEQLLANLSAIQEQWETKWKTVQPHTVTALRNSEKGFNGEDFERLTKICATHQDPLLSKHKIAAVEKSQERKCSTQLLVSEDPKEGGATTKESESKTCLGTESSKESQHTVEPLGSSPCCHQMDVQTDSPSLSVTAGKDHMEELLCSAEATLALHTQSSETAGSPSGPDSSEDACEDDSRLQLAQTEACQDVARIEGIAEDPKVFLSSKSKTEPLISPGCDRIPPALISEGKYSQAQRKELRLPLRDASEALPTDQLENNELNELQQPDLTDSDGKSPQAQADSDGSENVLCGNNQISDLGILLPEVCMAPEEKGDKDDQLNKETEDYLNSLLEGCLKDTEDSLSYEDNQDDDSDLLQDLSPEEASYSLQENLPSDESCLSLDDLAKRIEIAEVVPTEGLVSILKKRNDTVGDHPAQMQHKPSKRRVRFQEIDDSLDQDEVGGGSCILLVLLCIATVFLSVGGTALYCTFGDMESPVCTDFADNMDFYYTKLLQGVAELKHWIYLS

Each target was assayed with ClCC(=O)N[C@H]1CCCc2ccccc12 (assay: log2 mean competition ratio of IA-DTB cysteine labelling (DMSO/compound) (log2 ratio); higher = stronger cysteine engagement by compound). Details: 50 µM; treatment time: 4 h; cell line lysate: HEK293T.
Description: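 IA-DTB competitive cysteine chemoproteomics in HEK293T RIPA lysate. Lysates were treated with compound 29 or 30 at 50 or 200 µM for 4 h, then IA-DTB (500 µM, 1 h), trypsin-digested, NeutrAvidin-enriched and analysed by diaPASEF. Competition ratio = intensity DMSO / intensity compound (n=4 treated, n=64 DMSO); binding: mean log2 CR ≥ 1 and p ≤ 0.05 plus QC filters. Target is the cysteine site.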

| Target | log2 mean competition ratio |
| --- | --- |
| COMMD5 C64 (UniProt Q9GZQ3) | 0.22 |
| CHD8 C1655 (UniProt Q9HCK8) | -0.311 |
| CHMP5 C20 (UniProt Q9NZZ3) | 0.328 |
| CNOT1 C50 (UniProt A5YKK6) | -0.0717 |
| CHEK2 C362 (UniProt O96017) | -0.272 |
| CLTCL1 C1404 (UniProt P53675) | -0.227 |
| COPS4 C255 (UniProt Q9BT78) | -0.298 |
| CPNE3 C5 (UniProt O75131) | 0.201 |
| CLPX C538 (UniProt O76031) | -0.0639 |
| CPSF4 C82 (UniProt O95639) | -0.796 |
| CHEK2 C539 (UniProt O96017) | 0.686 |
| CPSF3 C358 (UniProt Q9UKF6) | 0.109 |
| CLASP2 C976 (UniProt O75122) | 0.156 |
| CIC C1432 | -0.0271 |
| CHERP C69 (UniProt Q8IWX8) | -0.331 |
| CLUAP1 C292 | 0.389 |
| CIAO1 C212 (UniProt O76071) | -0.236 |
| COG1 C577 (UniProt Q8WTW3) | 0.0707 |
| COG1 C87 (UniProt Q8WTW3) | 0.0252 |
| CNST C439 (UniProt Q6PJW8) | 0.259 |

Same assay, conditions: 200 µM; treatment time: 4 h; cell line lysate: HEK293T

| Target | log2 mean competition ratio |
| --- | --- |
| COMMD5 C64 (UniProt Q9GZQ3) | -0.0546 |
| CHD8 C1655 (UniProt Q9HCK8) | 0.0883 |
| CHMP5 C20 (UniProt Q9NZZ3) | 0.236 |
| CNOT1 C50 (UniProt A5YKK6) | 0.0292 |
| CHEK2 C362 (UniProt O96017) | 0.0907 |
| CLTCL1 C1404 (UniProt P53675) | -0.0253 |
| COPS4 C255 (UniProt Q9BT78) | -0.0571 |
| CPNE3 C5 (UniProt O75131) | -0.361 |
| CLPX C538 (UniProt O76031) | -0.155 |
| CPSF4 C82 (UniProt O95639) | 0.0682 |
| CHEK2 C539 (UniProt O96017) | -0.00889 |
| CPSF3 C358 (UniProt Q9UKF6) | -0.167 |
| CLASP2 C976 (UniProt O75122) | -0.352 |
| CIC C1432 | 0.221 |
| CHERP C69 (UniProt Q8IWX8) | 0.0292 |
| CLUAP1 C292 | -0.23 |
| CIAO1 C212 (UniProt O76071) | 0.112 |
| COG1 C577 (UniProt Q8WTW3) | -0.237 |
| COG1 C87 (UniProt Q8WTW3) | 0.195 |
| CNST C439 (UniProt Q6PJW8) | 0.0124 |
